The test system of this data set is layer V pyramidal neurons. Briefly: Intracellular dye spread (diffusion, loading, incubation, simple filling) in pyramidal neurons. The class given is cell-based, Sprague Dawley rats. Conditions: for Simple filling time / Simple filling time, somatic ROI: 400 μM dye in pipette kept on cell; for Simple filling time: time to good optical signals (single AP); for Incubation time: after dye loading; for Incubation time / Dye loading time: stopped at experimenter's discretion; for Dye loading time: cells with good optical signals from basal dendrites; for Simple filling time, somatic ROI: somatic ROI (footnote a).

`CCN(CC)c1ccc(-c2ccc(/C=C/c3cc[n+](CCC[N+](CC)(CC)CC)cc3)s2)s1` [PY-1261, Di-2-BTEPPTEA] came in with a Simple filling time of 32.5 ± 3.5 min.
In turn, `CCCN(CCC)c1ccc(-c2ccc(/C=C/c3cc[n+](CCC[N+](CC)(CC)CC)cc3)s2)s1` [PY-1286, Di-3-BTEPPTEA] came in with a Simple filling time of 50.0 ± 10.0 min, an Incubation time of 83.3 ± 43.7 min and a Dye loading time of 52.3 ± 6.7 min.
On to `CCCCN(CCCC)c1ccc2cc(/C=C/C=C/c3cc[n+](CCC[N+](C)(C)C)c4ccccc34)ccc2c1.[Br-].[Br-]` [di-4-ANBDQPQ, Di-4-ANBDQPQ, reference compound], for which the “Simple filling time, somatic ROI” value is recorded as 46.5 ± 12.0^a min.
On to `CCCCN(CCCC)c1ccc(-c2ccc(/C=C/c3cc[n+](CCC[N+](CC)(CC)CC)cc3)s2)s1` [PY-1266, Di-4-BTEPPTEA], for which the Simple filling time is 45.8 ± 8.2 min, the Incubation time was found to be 58.5 ± 13.4 min and the Dye loading time came to 32.5 ± 7.8 min.
For `CN(C)c1ccc(/C=C/c2ccc(/C=C/c3cc[n+](CCC[N+](C)(C)C)c4ccccc34)o2)cc1` [JPW-3080] the same measures were 43.1 ± 4.5 min, 54.0 ± 35.2 min and 26.8 ± 3.4 min.
With `CCN(CC)c1ccc(-c2ccc(-c3ccc(/C=C/c4cc[n+](CCC[N+](CC)(CC)CC)cc4)s3)s2)s1` [PY-1268], the “Simple filling time, somatic ROI” value is 55.0 ± 8.2^a min.
Regarding `CCN(CC)c1ccc2cc(/C=C/C=C/c3cc[n+](CCC[N+](C)(C)C)c4ccccc34)ccc2c1.[Br-].[Br-]` [JPW-4090, Di-2-ANBDQPQ], the Simple filling time amounted to 58.3 ± 12.2 min, the Incubation time was found to be 69.5 ± 37.8 min and the Dye loading time was 34.9 ± 11.1 min.

The record behind these values is US8129532B2, “Amino(oligo)thiophene dyes, preparation thereof, and optical methods of use” (The University of Connecticut, priority 2007, dated 2012).
